These are yes or no findings as the source states them, for the method shown. Binding seen in cells or lysates may run through a third protein. Some results given as binding are weak or reduced against the parent protein; the word gives no strength. For some assays here: Tags and fused reporters may be left off the sequences shown.
Key:
[1] = biological target: MAGI2 (human (endogenous in MDA-MB-231)) (UniProt Q86UL8); experiment: co-IP; MDA-MB-231/CLDN6 cells and MDA-MB-231/CLDN6^δPBM cells
[2] = biological target: T1, GFP-fused CLDN6 (UniProt P56747); experiment: as above
T1 sequence: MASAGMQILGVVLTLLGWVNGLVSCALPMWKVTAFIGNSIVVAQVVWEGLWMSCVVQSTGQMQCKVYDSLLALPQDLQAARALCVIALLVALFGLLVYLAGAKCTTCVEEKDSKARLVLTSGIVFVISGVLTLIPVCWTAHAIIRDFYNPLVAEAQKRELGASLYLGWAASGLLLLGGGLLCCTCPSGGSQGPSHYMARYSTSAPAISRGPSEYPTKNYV

Protein sequences, listed by entry. Tags and fused reporters are not part of them.
UniProt Q86UL8: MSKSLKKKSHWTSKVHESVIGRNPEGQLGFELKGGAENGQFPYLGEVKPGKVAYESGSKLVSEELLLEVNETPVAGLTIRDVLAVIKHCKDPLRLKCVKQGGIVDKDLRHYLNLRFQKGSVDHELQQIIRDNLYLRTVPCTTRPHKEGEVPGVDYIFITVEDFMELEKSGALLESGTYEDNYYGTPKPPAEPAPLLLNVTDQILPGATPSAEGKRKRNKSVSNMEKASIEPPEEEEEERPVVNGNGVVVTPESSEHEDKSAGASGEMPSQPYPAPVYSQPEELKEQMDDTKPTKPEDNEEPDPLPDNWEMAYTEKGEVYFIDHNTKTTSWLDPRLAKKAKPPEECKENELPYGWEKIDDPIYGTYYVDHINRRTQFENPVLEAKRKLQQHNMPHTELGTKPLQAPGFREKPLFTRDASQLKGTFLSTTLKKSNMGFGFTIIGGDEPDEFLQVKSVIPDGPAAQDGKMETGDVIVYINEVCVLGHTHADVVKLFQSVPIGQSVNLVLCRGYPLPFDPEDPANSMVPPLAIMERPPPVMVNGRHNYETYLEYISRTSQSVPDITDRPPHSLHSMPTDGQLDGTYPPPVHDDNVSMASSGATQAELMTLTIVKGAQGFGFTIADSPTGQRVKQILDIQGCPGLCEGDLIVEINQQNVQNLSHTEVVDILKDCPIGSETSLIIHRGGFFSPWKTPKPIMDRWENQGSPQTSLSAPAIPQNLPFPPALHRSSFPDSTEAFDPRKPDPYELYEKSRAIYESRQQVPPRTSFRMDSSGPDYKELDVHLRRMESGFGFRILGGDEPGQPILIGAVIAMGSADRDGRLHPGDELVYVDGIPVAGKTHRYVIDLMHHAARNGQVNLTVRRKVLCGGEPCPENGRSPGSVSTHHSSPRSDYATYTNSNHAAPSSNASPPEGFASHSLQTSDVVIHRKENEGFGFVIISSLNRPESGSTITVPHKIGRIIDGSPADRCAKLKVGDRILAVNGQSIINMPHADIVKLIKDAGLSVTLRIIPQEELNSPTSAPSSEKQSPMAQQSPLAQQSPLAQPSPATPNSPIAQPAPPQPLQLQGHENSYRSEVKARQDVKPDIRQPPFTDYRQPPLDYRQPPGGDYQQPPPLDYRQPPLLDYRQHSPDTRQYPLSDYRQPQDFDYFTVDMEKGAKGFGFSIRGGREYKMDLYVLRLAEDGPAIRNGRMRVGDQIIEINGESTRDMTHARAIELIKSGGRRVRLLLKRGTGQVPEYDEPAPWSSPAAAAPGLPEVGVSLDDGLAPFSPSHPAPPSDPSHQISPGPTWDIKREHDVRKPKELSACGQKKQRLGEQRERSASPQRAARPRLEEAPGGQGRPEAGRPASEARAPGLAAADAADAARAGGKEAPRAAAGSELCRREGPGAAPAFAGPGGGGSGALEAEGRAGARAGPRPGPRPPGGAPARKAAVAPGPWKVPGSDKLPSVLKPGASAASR
UniProt Q13887: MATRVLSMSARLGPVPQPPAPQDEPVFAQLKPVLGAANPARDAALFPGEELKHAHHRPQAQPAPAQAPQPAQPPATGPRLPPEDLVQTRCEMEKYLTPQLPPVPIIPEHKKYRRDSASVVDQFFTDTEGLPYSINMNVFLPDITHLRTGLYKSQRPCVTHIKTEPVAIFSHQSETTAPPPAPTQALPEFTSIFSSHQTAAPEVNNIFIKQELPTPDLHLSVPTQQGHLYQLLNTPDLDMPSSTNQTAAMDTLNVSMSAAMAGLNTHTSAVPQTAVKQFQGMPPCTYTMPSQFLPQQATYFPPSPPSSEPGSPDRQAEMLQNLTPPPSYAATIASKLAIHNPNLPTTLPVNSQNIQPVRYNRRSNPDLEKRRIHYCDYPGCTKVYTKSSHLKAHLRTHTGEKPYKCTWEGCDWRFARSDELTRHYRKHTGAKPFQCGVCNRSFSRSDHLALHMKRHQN

Substance: KLF5 (from UniProt Q13887 1-457)
- binding [1]: binds

Substance: MAGI2 (from UniProt Q86UL8 1-1455)
- binding [2]: binds
